These are yes or no findings as the source states them, for the method shown. Some results given as binding are weak or reduced against the parent protein; the word gives no strength.
T1: φ6 protein P1 (bacteriophage φ6) (UniProt P11126)
T1 sequence: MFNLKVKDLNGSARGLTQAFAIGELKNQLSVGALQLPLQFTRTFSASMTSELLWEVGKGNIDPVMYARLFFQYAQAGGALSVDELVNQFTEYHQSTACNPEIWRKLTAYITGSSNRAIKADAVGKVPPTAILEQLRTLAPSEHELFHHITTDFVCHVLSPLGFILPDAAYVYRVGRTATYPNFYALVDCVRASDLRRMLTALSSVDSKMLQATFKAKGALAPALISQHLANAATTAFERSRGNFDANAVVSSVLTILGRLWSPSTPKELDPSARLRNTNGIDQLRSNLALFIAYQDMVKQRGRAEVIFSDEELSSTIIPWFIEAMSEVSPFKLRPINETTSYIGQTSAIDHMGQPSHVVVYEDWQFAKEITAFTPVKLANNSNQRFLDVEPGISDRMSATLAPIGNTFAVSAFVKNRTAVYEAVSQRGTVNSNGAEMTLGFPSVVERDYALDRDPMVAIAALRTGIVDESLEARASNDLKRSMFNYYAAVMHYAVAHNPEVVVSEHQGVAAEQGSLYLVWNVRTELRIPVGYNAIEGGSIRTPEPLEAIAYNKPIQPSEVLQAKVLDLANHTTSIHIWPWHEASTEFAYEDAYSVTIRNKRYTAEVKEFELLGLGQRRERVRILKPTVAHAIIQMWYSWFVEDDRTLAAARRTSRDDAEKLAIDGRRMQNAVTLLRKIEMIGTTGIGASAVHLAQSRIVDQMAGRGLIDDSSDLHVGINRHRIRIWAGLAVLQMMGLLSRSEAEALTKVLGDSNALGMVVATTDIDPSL


How the values were obtained:
[1] = target: T1, φ6 protein P1 (bacteriophage φ6); experiment: asymmetrical flow field-flow fractionation (AF4) with SDS-PAGE of fractions; Triton X-114-extracted φ6 virions (NC1 input, NC2 input); 10 mM potassium phosphate pH 7.2, 1 mM MgCl2, 0.1 mM CaCl2, 150 mM NaCl; 22 °C; proteins of the late-eluting NC peak seen by Coomassie-stained SDS-PAGE
[2] = target: T1, φ6 protein P1 (bacteriophage φ6); experiment: asymmetrical flow field-flow fractionation (AF4) with SDS-PAGE of fractions; NC (NC2 input or AF4-purified NC) treated with 25 mM EGTA, 1 mM ATP, RT, 30 min; AF4 in 10 mM potassium phosphate pH 7.2, 1 mM MgCl2, 150 mM NaCl, 20 mM EGTA; 22 °C

Row | binding [1] | binding [2] | Binder
1 | binds | binds | φ6 protein P4 (protein, UniProt P11125 1-332) MPIVVTQAHIDRVGIAADLLDASPVSLQVLGRPTAINTVVIKTYIAAVMELASKQGGSLAGVDIRPSVLLKDTAIFTKPKAKSADVESDVDVLDTGIYSVPGLARKPVTHRWPSEGIYSGVTALMGATGSGKSITLNEKLRPDVLIRWGEVAEAYDELDTAVHISTLDEMLIVCIGLGALGFNVAVDSVRPLLFRLKGAASAGGIVAVFYSLLTDISNLFTQYDCSVVMVVNPMVDAEKIEYVFGQVMASTVGAILCADGNVSRTMFRTNKGRIFNGAAPLAADTHMPSMDRPTSMKALDHTSIASVAPLERGSVDTDDRNSAPRRGANFSL
2 | binds | binds | φ6 protein P2 (protein, UniProt P11124 1-665) MPRRAPAFPLSDIKAQMLFANNIKAQQASKRSFKEGAIETYEGLLSVDPRFLSFKNELSRYLTDHFPANVDEYGRVYGNGVRTNFFGMRHMNGFPMIPATWPLASNLKKRADADLADGPVSERDNLLFRAAVRLMFSDLEPVPLKIRKGSSTCIPYFSNDMGTKIEIAERALEKAEEAGNLMLQGKFDDAYQLHQMGGAYYVVYRAQSTDAITLDPKTGKFVSKDRMVADFEYAVTGGEQGSLFAASKDASRLKEQYGIDVPDGFFCERRRTAMGGPFALNAPIMAVAQPVRNKIYSKYAYTFHHTTRLNKEEKVKEWSLCVATDVSDHDTFWPGWLRDLICDELLNMGYAPWWVKLFETSLKLPVYVGAPAPEQGHTLLGDPSNPDLEVGLSSGQGATDLMGTLLMSITYLVMQLDHTAPHLNSRIKDMPSACRFLDSYWQGHEEIRQISKSDDAILGWTKGRALVGGHRLFEMLKEGKVNPSPYMKISYEHGGAFLGDILLYDSRREPGSAIFVGNINSMLNNQFSPEYGVQSGVRDRSKRKRPFPGLAWASMKDTYGACPIYSDVLEAIERCWWNAFGESYRAYREDMLKRDTLELSRYVASMARQAGLAELTPIDLEVLADPNKLQYKWTEADVSANIHEVLMHGVSVEKTERFLRSVMPR

Row | Binder | binding [1] | binding [2]
3 | φ6 protein P8 (protein, UniProt P07579 1-149) MLLPVVARAAVPAIESAIAATPGLVSRIAAAIGSKVSPSAILAAVKSNPVVAGLTLAQIGSTGYDAYQQLLENHPEVAEMLKDLSFKADEIQPDFIGNLGQYREELELVEDAARFVGGMSNLIRLRQALELDIKYYGLKMQLNDMGYRS | binds | no binding (condition: with 25 mM EGTA (Ca2+ chelation))

From publication PMC6265779
